From publication PMC4589239
No constants are given. Whether binding was seen depends on the method and setting. Binding seen in cells or lysates may run through a third protein. Binding calls can cover weak binding; strength is not graded here. Where a sequence is shown, tags or fusion partners need not be part of it.

Molecular target: FLAG-RXR
Assay: co-IP; HEK293 cells transfected with wild-type or p.H229Q HA-VDR and the FLAG-tagged partner plasmid; extracts immunoprecipitated with anti-FLAG; Western blot with anti-HA and anti-FLAG

binding: binds
B1: wild-type HA-VDR (vitamin D receptor) (receptor, UniProt P11473-1 1-427)
chain: MEAMAASTSLPDPGDFDRNVPRICGVCGDRATGFHFNAMTCEGCKGFFRRSMKRKALFTCPFNGDCRITKDNRRHCQACRLKRCVDIGMMKEFILTDEEVQRKREMILKRKEEEALKDSLRPKLSEEQQRIIAILLDAHHKTYDPTYSDFCQFRPPVRVNDGGGSHPSRPNSRHTPSFSGDSSSSCSDHCITSSDMMDSSSFSNLDLSEEDSDDPSVTLELSQLSMLPHLADLVSYSIQKVIGFAKMIPGFRDLTSEDQIVLLKSSAIEVIMLRSNESFTMDDMSWTCGNQDYKYRVSDVTKAGHSLELIEPLIKFQVGLKKLNLHEEEHVLLMAICIVSPDRPGVQDAALIEAIQDRLSNTLQTYIRCRHPPPGSHLLYAKMIQKLADLRSLNEEHSKQYRCLSFQPECSMKLTPLVLEVFGNEIS
